PubChem BioAssay AID1159578, Peter MacCallum Cancer Centre | 2015

Assay: 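siRNA pools altering how lymphatic endothelial cells close a scratch wound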 (primary screen)
Cell system: human lymphatic endothelial cells
Reagent: siRNA pool against human genes, 40 nM
Duration: 48 h after transfection
Measured: 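High-content imaging of dye-stained cells in a scratch assay measures filled wound area and nuclei per well; duplicate means given as ratio to mock and robust z-score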
Reading the numbers: migration robust z-score: higher = faster migration into the scratch; migration relative to mock: higher = more scratch area covered than mock; nuclei per well: higher = more cells in the well
Hit rule: 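Pools averaging fewer than 3300 nuclei are never called; remaining pools count as changed when migration robust z lies outside -2 to 2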
Calls: active = migration changed; inactive = no migration change, or too few cells
In all, the deposit lists about 18,000 reagents; below is a random part of them. About 1,030 of them (5.7%) were called active. 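Inactive calls also include pools with fewer than 3300 nuclei, whose migration was not assessed.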 The raw values are shown without normalisation. A number with no mark means an inactive call.

no.	target	migration robust z-score	migration class with cell-count check	migration relative to mock	nuclei per well, duplicate mean
1	PHYH	0.23	migration z between -2 and 2; enough cells	0.85	6114
2	PREX2	0.32	migration z between -2 and 2; enough cells	0.97	6722
3	FREM1	1.43	migration z between -2 and 2; enough cells	1.25	6414
4	GABRG3	0.13	migration z between -2 and 2; enough cells	0.83	3724
5	WDR55	-3.04	under 3300 nuclei; migration not judged	0.08	2963
6	DAZAP1	0.19	migration z between -2 and 2; enough cells	0.93	7572
7	SOCS3	-0.54	migration z between -2 and 2; enough cells	0.7	4381
8	SLC35D1	1.04	migration z between -2 and 2; enough cells	1	5228
9	NRBF2	-0.42	migration z between -2 and 2; enough cells	0.73	6006
10	RALGAPA1	0.04	migration z between -2 and 2; enough cells	0.9	4949
11	KLF1	-0.34	migration z between -2 and 2; enough cells	0.74	4778
12	MPZL1	1.92	migration z between -2 and 2; enough cells	1.38	5592
13	OMA1	0.52	migration z between -2 and 2; enough cells	0.9	5446
14	JADE3	-0.73	migration z between -2 and 2; enough cells	0.66	3650
15	CYP2A13	1.74	migration z between -2 and 2; enough cells	1.14	4599
16	TMC5	-0.26	migration z between -2 and 2; enough cells	0.82	5352
17	ADGRD2	-0.26	migration z between -2 and 2; enough cells	0.76	4931
18	ITGAE	0.05	migration z between -2 and 2; enough cells	0.82	6600
19	PTER	0.13	migration z between -2 and 2; enough cells	0.83	6116
20	NTS	0.64	migration z between -2 and 2; enough cells	1.05	7401
21	MZT2B	-0.12	migration z between -2 and 2; enough cells	0.86	6131

The list goes on (2 carried over from the part before).
no.	target	migration robust z-score	migration class with cell-count check	migration relative to mock	nuclei per well, duplicate mean
20	NTS	0.64	migration z between -2 and 2; enough cells	1.05	7401
21	MZT2B	-0.12	migration z between -2 and 2; enough cells	0.86	6131
22	SNF8	1.7	migration z between -2 and 2; enough cells	1.32	6194
23	SCN4B	0.28	migration z between -2 and 2; enough cells	0.86	6116
24	BOD1L1	0.6	migration z between -2 and 2; enough cells	1.03	5784
25	SCAND1	-0.24	migration z between -2 and 2; enough cells	0.82	6070
26	OR4Q3	-0.56	migration z between -2 and 2; enough cells	0.74	5996
27	SYNJ2	-0.11	migration z between -2 and 2; enough cells	0.78	4238
28	ABL2	-2.54	under 3300 nuclei; migration not judged	0.32	3192
29	GATB	1.2	migration z between -2 and 2; enough cells	1.03	6496
30	PRRC2A	1	migration z between -2 and 2; enough cells	1.15	7150
31	GTF2H3	-0.05	migration z between -2 and 2; enough cells	0.8	5178
32	WDR6	2.67 (active)	migration z above 2; enough cells	1.58	5749
33	PPP1R10	-0.99	migration z between -2 and 2; enough cells	0.62	5198
34	KDM1B	-0.32	migration z between -2 and 2; enough cells	0.74	6437
35	PUS7	-0.08	migration z between -2 and 2; enough cells	0.86	5704
36	KRTAP5-10	1.21	migration z between -2 and 2; enough cells	1.21	6652
37	MAPK10	-0.86	migration z between -2 and 2; enough cells	0.64	6225
38	OR11A1	-1.06	migration z between -2 and 2; enough cells	0.62	6049
39	RAB3C	0	migration z between -2 and 2; enough cells	0.8	5955
